Results deposited as PubChem BioAssay AID1259308 (NCATS, 2017)
The whole screen tested about 59,000 reagents; below is an unselected part. About 1,510 of them (2.6%) were called active. 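Calls use total luciferase alone and ignore viability, so some active siRNAs may act by altering cell number.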 Unmarked entries are inactive. Reagents against one gene are numbered here.

- Aim: 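Candidate targets for better recombinant protein yield in mammalian cells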 (primary screen)
- Cells: human HEK293 embryonic kidney cells stably expressing firefly luciferase (HEK-CMV-Luc2-Hygro)
- Reagent: single siRNA against human genes, 0.8 pmol siRNA per well
- Duration: 72 h
- Measurement: 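Luciferase light (ONE-Glo) measured on one replicate plate set and viability (CellTiter-Glo) on the other, scaled to a negative control siRNA, with robust z-scores and luciferase per cell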
- Direction: total luciferase, z-score and total luciferase, % of control: higher = more reporter protein produced; luciferase per cell, z-score: higher = more reporter output per viable cell; viable cells, % of control: higher = more viable cells
- Active means: 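Active when the median/MAD z-score for overall luciferase is greater than 3; a gene was taken forward for validation with new siRNAs if at least two of its three siRNAs passed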
- Calls: active = raised luciferase; inactive = no rise

gene knocked down	siRNA no.	total luciferase, z-score	total luciferase, % of control	luciferase per cell, z-score	viable cells, % of control
ETV1 (ETS variant transcription factor 1)	1	-0.762	66.7	0.063	73.3
ETV1 (ETS variant transcription factor 1)	2	3.91 (active)	160	2.3	97.4
ETV1 (ETS variant transcription factor 1)	3	0.771	97.2	0.876	86.3
TOP2A (DNA topoisomerase II alpha)	1	0.834	98.5	-0.128	114
TOP2A (DNA topoisomerase II alpha)	2	0.877	99.3	0.901	87.6
TOP2A (DNA topoisomerase II alpha)	3	0.82	98.2	1.23	79.4
FAM180B (family with sequence similarity 180 member B)	1	-2.02	41.8	-1.97	78.4
FAM180B (family with sequence similarity 180 member B)	2	0.0902	83.7	1.59	61.5
FAM180B (family with sequence similarity 180 member B)	3	1.75	117	0.52	114
CDC42EP1 (CDC42 effector protein 1)	1	-0.0644	80.6	0.349	82.2
CDC42EP1 (CDC42 effector protein 1)	2	0.416	90.2	0.2	95.6
CDC42EP1 (CDC42 effector protein 1)	3	2.65	135	2.09	86.6
LMNB2 (lamin B2)	1	-0.00338	81.8	-0.234	97.2
LMNB2 (lamin B2)	2	-1.56	50.8	-1.22	78.3
LMNB2 (lamin B2)	3	-0.421	73.5	-0.356	90.2
MDH1B (malate dehydrogenase 1B)	1	0.666	95.1	0.682	88.8
MDH1B (malate dehydrogenase 1B)	2	-0.781	66.4	0.324	68.1
MDH1B (malate dehydrogenase 1B)	3	-0.481	72.3	-0.559	93.6
PIGO (phosphatidylinositol glycan anchor biosynthesis class O)	1	-0.687	68.2	-0.52	87.4
PIGO (phosphatidylinositol glycan anchor biosynthesis class O)	2	0.641	94.6	0.841	84.7
PIGO (phosphatidylinositol glycan anchor biosynthesis class O)	3	0.193	85.7	0.804	77.5
MANEAL (mannosidase endo-alpha like)	1	-0.398	74	-0.553	95.6
MANEAL (mannosidase endo-alpha like)	2	1.03	102	1.11	85.3
MANEAL (mannosidase endo-alpha like)	3	-0.68	68.4	0.391	68.9
LEFTY1 (left-right determination factor 1)	1	-1.36	54.8	-1.23	84.5
LEFTY1 (left-right determination factor 1)	2	-1.43	53.4	-1.62	91.4
LEFTY1 (left-right determination factor 1)	3	2.63	134	1.77	94.2
L3MBTL4 (L3MBTL histone methyl-lysine binding protein 4)	1	3.89 (active)	159	3.91	63.6
L3MBTL4 (L3MBTL histone methyl-lysine binding protein 4)	2	4.04 (active)	162	3.25	77.1
L3MBTL4 (L3MBTL histone methyl-lysine binding protein 4)	3	-0.184	78.2	1.8	54.4
SYT15 (synaptotagmin 15)	1	2.2	126	1.57	92.8
SYT15 (synaptotagmin 15)	2	-0.24	77.1	-0.617	101
SYT15 (synaptotagmin 15)	3	0.451	90.9	0.951	79
DTX2 (deltex E3 ubiquitin ligase 2)	1	-1.46	52.8	-1.55	88.9
DTX2 (deltex E3 ubiquitin ligase 2)	2	-1.88	44.5	-1.76	79.1
DTX2 (deltex E3 ubiquitin ligase 2)	3	-1.42	53.6	-0.0965	61.5

Records listed so far whose target name begins with L or l (9):
gene knocked down	siRNA no.	total luciferase, z-score	total luciferase, % of control	luciferase per cell, z-score	viable cells, % of control
LMNB2 (lamin B2)	1	-0.00338	81.8	-0.234	97.2
LMNB2 (lamin B2)	2	-1.56	50.8	-1.22	78.3
LMNB2 (lamin B2)	3	-0.421	73.5	-0.356	90.2
LEFTY1 (left-right determination factor 1)	1	-1.36	54.8	-1.23	84.5
LEFTY1 (left-right determination factor 1)	2	-1.43	53.4	-1.62	91.4
LEFTY1 (left-right determination factor 1)	3	2.63	134	1.77	94.2
L3MBTL4 (L3MBTL histone methyl-lysine binding protein 4)	1	3.89 (active)	159	3.91	63.6
L3MBTL4 (L3MBTL histone methyl-lysine binding protein 4)	2	4.04 (active)	162	3.25	77.1
L3MBTL4 (L3MBTL histone methyl-lysine binding protein 4)	3	-0.184	78.2	1.8	54.4

Continued:
gene knocked down	siRNA no.	total luciferase, z-score	total luciferase, % of control	luciferase per cell, z-score	viable cells, % of control
CCDC73 (coiled-coil domain containing 73)	1	0.32	88.3	0.372	89.4
CCDC73 (coiled-coil domain containing 73)	2	0.106	84	-0.0338	94.7
CCDC73 (coiled-coil domain containing 73)	3	1.11	104	0.849	92.9
ADRA1D (adrenoceptor alpha 1D)	1	0.0864	83.6	-0.238	99.5
ADRA1D (adrenoceptor alpha 1D)	2	-0.0792	80.3	-0.569	104
ADRA1D (adrenoceptor alpha 1D)	3	0.474	91.3	0.523	88.9
ADPRH (ADP-ribosylarginine hydrolase)	1	-0.506	71.8	-0.993	104
ADPRH (ADP-ribosylarginine hydrolase)	2	1.66	115	0.99	99
ADPRH (ADP-ribosylarginine hydrolase)	3	-0.265	76.6	-0.761	105
NMI (N-myc and STAT interactor)	1	-0.151	78.9	0.751	72.3
NMI (N-myc and STAT interactor)	2	0.644	94.7	1.12	78.8
NMI (N-myc and STAT interactor)	3	2.1	124	1.36	96.5
GRM4 (glutamate metabotropic receptor 4)	1	0.133	84.5	0.189	89.9
GRM4 (glutamate metabotropic receptor 4)	2	0.342	88.7	0.185	94.4
GRM4 (glutamate metabotropic receptor 4)	3	-0.5	71.9	-1.06	106
CALCOCO1 (calcium binding and coiled-coil domain 1)	1	0.141	84.7	0.182	90.2
CALCOCO1 (calcium binding and coiled-coil domain 1)	2	-1.23	57.5	-0.588	75
CALCOCO1 (calcium binding and coiled-coil domain 1)	3	-0.112	79.7	-0.212	94.1
NXPE3 (neurexophilin and PC-esterase domain family member 3)	1	-0.46	72.7	-0.344	89
NXPE3 (neurexophilin and PC-esterase domain family member 3)	2	2	122	1.31	96.3
NXPE3 (neurexophilin and PC-esterase domain family member 3)	3	-0.937	63.2	-1.26	98.5
